Columns and labels:
5HT1D = settings: cited from earlier work

## CC(C)NC[C@H](O)COc1cccc2ccccc12 [(-)Propanolol]
5HT1D
  pKi 5HT1D (Calf caudate): 5.5
5HT5a receptor
  pKi 5HT5 (Cos-7): 4.9
